# Data: PubChem BioAssay (EPA / NIEHS)
# Chains of the proteins cited; added tags and fusions are not shown. Lines headed by an entry give the natural chain unless they say otherwise; changes in a name come on top.
# UniProt P43354, whole entry, looked up: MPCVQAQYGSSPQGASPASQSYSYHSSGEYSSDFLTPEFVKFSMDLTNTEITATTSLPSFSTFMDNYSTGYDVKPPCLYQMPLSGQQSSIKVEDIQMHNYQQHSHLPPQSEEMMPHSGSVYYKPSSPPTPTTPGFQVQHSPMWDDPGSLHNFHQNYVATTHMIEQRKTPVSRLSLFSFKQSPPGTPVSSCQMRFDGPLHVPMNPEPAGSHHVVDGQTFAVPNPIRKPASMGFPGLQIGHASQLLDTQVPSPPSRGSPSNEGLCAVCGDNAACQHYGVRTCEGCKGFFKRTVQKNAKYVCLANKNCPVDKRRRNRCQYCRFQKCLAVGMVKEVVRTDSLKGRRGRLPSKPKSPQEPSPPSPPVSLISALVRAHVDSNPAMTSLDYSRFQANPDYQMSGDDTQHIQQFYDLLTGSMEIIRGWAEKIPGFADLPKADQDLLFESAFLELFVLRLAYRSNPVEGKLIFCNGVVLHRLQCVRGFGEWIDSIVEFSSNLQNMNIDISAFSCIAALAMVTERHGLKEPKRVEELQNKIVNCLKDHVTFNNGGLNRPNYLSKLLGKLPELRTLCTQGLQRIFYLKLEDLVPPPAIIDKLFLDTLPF
# UniProt Q07869: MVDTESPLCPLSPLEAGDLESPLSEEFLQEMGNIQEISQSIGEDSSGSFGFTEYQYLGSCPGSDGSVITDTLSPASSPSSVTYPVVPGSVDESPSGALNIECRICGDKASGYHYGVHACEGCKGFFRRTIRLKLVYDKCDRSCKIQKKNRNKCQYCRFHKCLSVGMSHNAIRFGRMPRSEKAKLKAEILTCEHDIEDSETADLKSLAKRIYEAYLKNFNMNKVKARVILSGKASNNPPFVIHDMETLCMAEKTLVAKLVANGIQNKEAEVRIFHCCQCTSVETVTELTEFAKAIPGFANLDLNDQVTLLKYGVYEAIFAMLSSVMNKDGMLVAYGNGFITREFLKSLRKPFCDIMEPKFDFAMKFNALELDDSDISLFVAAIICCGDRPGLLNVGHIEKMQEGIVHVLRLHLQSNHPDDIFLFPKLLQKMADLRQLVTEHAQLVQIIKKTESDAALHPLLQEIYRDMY
# UniProt P10826, whole entry, looked up: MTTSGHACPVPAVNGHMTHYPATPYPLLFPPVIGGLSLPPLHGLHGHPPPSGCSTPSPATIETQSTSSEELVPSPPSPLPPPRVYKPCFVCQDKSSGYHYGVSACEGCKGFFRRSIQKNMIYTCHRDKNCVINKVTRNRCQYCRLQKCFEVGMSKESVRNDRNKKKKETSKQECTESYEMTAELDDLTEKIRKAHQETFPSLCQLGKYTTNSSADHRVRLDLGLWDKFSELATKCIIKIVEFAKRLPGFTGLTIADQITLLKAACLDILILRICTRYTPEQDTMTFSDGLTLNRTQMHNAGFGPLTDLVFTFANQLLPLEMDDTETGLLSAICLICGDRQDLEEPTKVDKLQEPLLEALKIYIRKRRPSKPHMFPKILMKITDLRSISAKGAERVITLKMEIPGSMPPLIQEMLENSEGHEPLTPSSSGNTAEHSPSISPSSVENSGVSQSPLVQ
# UniProt P10276, whole entry, looked up: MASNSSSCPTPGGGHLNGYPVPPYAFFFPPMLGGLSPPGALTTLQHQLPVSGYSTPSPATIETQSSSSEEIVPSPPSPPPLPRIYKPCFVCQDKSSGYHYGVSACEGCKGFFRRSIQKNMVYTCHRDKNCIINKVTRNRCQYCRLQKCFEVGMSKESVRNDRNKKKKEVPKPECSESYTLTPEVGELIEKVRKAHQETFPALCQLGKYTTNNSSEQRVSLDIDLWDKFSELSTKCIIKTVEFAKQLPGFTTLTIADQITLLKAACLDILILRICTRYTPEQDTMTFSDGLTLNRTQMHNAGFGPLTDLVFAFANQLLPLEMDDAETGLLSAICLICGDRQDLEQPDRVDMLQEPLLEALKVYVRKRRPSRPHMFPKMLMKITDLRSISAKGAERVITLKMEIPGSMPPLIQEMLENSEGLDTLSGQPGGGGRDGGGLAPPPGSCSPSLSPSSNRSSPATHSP
# UniProt P13631, whole entry, looked up: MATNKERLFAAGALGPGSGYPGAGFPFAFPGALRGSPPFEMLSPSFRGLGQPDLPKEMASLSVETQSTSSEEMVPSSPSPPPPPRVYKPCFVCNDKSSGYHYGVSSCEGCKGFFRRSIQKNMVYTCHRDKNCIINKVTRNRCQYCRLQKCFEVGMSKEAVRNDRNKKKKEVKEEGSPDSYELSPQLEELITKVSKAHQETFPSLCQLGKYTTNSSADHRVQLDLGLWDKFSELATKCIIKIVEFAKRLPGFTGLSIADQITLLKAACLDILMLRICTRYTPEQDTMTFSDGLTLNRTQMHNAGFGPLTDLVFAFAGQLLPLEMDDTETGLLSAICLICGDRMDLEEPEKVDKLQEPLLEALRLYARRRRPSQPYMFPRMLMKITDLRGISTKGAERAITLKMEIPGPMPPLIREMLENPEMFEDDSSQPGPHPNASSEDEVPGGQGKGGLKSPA
# UniProt Q92753: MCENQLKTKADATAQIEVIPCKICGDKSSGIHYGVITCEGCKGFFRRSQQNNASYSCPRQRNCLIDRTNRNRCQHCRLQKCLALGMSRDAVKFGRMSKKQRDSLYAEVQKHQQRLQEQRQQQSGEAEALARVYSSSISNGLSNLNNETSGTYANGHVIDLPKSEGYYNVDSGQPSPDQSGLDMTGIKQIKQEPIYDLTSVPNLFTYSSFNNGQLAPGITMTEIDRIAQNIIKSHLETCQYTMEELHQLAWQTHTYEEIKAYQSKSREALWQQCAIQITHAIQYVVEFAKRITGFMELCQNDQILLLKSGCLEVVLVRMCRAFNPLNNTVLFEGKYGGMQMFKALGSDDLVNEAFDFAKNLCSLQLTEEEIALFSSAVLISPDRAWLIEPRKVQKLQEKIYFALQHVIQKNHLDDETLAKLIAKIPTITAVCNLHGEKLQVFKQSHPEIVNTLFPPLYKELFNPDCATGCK
# UniProt P51449: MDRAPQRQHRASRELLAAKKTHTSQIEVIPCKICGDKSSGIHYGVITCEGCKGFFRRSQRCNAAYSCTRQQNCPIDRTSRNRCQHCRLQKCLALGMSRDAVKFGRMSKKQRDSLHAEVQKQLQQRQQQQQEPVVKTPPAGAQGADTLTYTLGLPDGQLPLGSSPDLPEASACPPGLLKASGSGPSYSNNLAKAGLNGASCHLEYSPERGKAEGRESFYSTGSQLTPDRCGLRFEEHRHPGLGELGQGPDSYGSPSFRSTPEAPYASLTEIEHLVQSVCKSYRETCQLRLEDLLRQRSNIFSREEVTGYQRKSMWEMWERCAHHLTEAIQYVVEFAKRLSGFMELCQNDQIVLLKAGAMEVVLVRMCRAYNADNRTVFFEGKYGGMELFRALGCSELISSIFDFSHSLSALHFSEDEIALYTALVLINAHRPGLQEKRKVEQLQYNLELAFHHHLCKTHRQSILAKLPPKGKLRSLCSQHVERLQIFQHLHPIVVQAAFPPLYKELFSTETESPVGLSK
# UniProt Q13133, whole entry, looked up: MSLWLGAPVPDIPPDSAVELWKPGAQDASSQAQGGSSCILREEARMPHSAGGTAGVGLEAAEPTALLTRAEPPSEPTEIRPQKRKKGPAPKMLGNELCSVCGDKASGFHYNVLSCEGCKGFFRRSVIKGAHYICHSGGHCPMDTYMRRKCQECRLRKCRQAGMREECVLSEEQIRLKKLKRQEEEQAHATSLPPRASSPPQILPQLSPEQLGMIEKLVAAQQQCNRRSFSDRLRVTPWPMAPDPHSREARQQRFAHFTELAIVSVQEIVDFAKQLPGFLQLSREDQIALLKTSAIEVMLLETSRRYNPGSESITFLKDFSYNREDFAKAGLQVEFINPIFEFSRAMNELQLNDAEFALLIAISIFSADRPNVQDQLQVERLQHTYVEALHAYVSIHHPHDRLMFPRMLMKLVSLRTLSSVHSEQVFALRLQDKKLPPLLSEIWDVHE
# UniProt P41235: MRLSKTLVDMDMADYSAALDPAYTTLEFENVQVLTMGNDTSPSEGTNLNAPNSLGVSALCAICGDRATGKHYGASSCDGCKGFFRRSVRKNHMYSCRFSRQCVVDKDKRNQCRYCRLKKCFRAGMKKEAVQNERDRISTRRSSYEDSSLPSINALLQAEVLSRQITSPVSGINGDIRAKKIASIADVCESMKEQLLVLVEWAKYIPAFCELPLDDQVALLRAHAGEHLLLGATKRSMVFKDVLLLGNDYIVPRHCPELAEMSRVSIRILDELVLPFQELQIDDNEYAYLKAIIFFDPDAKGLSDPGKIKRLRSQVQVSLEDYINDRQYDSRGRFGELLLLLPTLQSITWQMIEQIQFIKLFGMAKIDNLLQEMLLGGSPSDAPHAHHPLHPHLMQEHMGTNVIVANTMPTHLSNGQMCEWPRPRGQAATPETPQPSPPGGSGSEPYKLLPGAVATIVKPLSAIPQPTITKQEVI
# UniProt P28702: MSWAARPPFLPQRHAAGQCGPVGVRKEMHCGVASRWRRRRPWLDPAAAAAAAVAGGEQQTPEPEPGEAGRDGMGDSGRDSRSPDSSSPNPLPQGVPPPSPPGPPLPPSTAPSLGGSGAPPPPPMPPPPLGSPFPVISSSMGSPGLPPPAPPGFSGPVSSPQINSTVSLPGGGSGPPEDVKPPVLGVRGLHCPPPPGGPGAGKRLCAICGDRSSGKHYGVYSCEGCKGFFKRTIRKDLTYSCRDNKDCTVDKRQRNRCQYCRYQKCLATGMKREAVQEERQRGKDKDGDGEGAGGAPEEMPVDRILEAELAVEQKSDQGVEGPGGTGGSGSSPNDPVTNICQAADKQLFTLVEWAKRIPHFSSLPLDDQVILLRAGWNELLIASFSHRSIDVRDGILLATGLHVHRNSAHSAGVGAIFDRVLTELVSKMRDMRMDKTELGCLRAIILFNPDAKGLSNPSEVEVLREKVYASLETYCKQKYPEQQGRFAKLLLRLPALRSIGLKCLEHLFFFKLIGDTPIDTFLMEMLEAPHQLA
# UniProt P04637, whole entry, looked up: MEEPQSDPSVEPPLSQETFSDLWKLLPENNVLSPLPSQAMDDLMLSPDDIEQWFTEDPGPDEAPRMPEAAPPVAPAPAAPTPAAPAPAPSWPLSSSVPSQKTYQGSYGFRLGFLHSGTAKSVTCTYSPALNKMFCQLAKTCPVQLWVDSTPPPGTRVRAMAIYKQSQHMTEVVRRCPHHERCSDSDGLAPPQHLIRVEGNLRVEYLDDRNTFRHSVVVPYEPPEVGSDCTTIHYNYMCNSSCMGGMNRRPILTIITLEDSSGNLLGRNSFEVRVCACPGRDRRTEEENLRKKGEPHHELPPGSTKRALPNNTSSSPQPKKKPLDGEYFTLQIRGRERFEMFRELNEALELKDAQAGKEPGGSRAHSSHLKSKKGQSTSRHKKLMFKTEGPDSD
# UniProt P19793: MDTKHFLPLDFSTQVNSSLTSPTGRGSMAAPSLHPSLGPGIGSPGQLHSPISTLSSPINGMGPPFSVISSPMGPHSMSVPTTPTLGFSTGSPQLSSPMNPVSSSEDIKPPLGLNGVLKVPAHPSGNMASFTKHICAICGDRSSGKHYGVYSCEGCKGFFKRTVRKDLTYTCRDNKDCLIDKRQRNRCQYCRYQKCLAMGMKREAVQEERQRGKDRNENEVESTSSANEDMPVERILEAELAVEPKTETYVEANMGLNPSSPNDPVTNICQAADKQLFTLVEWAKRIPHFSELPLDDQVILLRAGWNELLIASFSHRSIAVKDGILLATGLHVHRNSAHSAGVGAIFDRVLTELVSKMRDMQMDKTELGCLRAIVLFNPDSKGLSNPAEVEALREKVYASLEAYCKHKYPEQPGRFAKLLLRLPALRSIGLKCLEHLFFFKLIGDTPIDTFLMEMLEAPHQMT
# UniProt P11473: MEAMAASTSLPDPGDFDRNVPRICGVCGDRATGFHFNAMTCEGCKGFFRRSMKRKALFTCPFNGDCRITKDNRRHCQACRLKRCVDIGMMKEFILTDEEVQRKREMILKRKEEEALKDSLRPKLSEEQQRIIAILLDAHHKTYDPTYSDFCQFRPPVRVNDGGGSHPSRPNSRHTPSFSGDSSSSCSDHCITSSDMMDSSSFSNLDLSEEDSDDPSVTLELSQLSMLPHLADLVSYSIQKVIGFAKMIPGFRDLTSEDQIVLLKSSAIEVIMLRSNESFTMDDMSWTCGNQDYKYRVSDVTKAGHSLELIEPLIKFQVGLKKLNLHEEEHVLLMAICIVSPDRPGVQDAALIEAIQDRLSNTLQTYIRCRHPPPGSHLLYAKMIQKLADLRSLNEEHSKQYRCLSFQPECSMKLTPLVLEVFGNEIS
# Several values for one entry are separate records, joined by “and”; a condition that tells them apart may be missing. Equal entries are not always repeated. Inconclusive means that the source gave no clear call. Such entries were picked first, then a sample of the others. For some of these results: A potency beside an inconclusive call is a rough fit, not a confirmed value. Some structures have more than one record in an assay (separate samples or runs), and their calls can disagree. Activity calls are given as the source filed them. The calls were made as follows: active = hit-call score of the fitted dose curve at least 0.9, where 1 is the maximum; inconclusive = response in the unintended direction; inactive = score below 0.9.
# Key:
# [1] = ATG_GAL4_TRANS: Attagene TRANS-FACTORIAL HepG2 Assay for GAL4 (Internal Marker) (AID 2282976); conditions: HepG2 Attagene TRANS GAL4 internal marker reporter
# Method in brief: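 First, HepG2 cells were transfected with reporter units under GAL4-UAS control. Next, they were treated with chemical for 24 h. Finally, RNA was reverse-transcribed, PCR-amplified, FAM-labelled and resolved by capillary electrophoresis, with induction scored against DMSO.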
# [2] = molecular target: Nuclear receptor subfamily 4 group A member 2 (Homo sapiens) (UniProt P43354); test: ATG_NURR1_TRANS: Attagene TRANS-FACTORIAL HepG2 Assay for human Nuclear Receptor Related Protein 1 (NURR1) (AID 2282985); conditions: HepG2 Attagene TRANS reporter, mRNA readout
# Method in brief: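 Reporter transcript induction, measured by RT-PCR with fluorescent labelling, HpaI digestion and capillary electrophoresis, after 24 hr dosing of human HepG2 cells transiently expressing an exogenous NR-Gal4 fusion with GAL4-UAS-driven reporters; DMSO as baseline.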
# [3] = molecular target: human Peroxisome Proliferator-activated Receptor alpha (PPARa), PPARA (gene 5465) (UniProt Q07869); test: ATG_PPARa_TRANS: Attagene TRANS-FACTORIAL HepG2 Assay for human Peroxisome Proliferator-activated Receptor alpha (PPARa) (AID 2283001);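 as to AC50: potency for gain of reporter signal over DMSO so agonist or activator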
# Method in brief: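 Reporter transcripts quantified by RT-PCR plus capillary electrophoresis after 24 h treatment, fitted upward relative to DMSO. Cells: human HepG2 transiently carrying multiple GAL4-UAS reporter units driven by NR-Gal4 chimeras.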
# [4] = molecular target: human Retinoic Acid Receptor beta (RARb), RARB (gene 5915) (UniProt P10826); test: ATG_RARb_TRANS: Attagene TRANS-FACTORIAL HepG2 Assay for human Retinoic Acid Receptor beta (AID 2283004)
# Method in brief: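 Transient transfection of HepG2 with multiple reporter units → chemical dosing, 24 h → total RNA isolation → RT with oligo(dT) → reporter-specific PCR, 6-FAM primer extension, HpaI digest → capillary electrophoresis. Positive direction vs DMSO control.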
# [5] = molecular target: Retinoic acid receptor alpha (Homo sapiens) (UniProt P10276); test: ATG_RARa_TRANS: Attagene TRANS-FACTORIAL HepG2 Assay for human Retinoic Acid Receptor alpha (RARa) (AID 2283005);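 as to AC50: potency for increased reporter signal meaning RARa activation over DMSO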
# Method in brief: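 Reporter transcripts, measured by RT-PCR with fluorescent labeling and capillary electrophoresis after 24 h dosing, reflect activity of an exogenous human RARa–GAL4 fusion in transiently transfected HepG2. Fitted for increase relative to DMSO.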
# [6] = molecular target: human Retinoic Acid Receptor gamma (RARg), RARG (gene 5916) (UniProt P13631); test: ATG_RARg_TRANS: Attagene TRANS-FACTORIAL HepG2 Assay for human Retinoic Acid Receptor gamma (RARg) (AID 2283009);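 as to AC50: AC50 is for reporter induction above DMSO meaning RARg activation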
# Method in brief: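 TRANS format measured activity of exogenous NR-GAL4 fusion (RARg) in transfected HepG2 liver cells after 24 h dosing. Induced reporter RNA was detected by RT-PCR/capillary electrophoresis fluorescence, analysed in the positive direction against DMSO.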
# [7] = molecular target: human RAR-related Orphan Receptor beta (RORb), RORB (gene 6096) (UniProt Q92753); test: ATG_RORb_TRANS: Attagene TRANS-FACTORIAL HepG2 Assay for human RAR-related Orphan Receptor beta (RORb) (AID 2283010);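 as to AC50: potency for increased reporter mRNA meaning activation of RORb-Gal4 chimera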
# Method in brief: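 Transfect HepG2 with multiple GAL4-UAS reporter transcription units; dose chemicals for 24 h; isolate RNA, reverse-transcribe and PCR-amplify reporter sequences; label, digest and resolve fragments by capillary electrophoresis; fit increases relative to DMSO.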
# [8] = molecular target: human RAR-related Orphan Receptor gamma (RORg), RORC (gene 6097) (UniProt P51449); test: ATG_RORg_TRANS: Attagene TRANS-FACTORIAL HepG2 Assay for human RAR-related Orphan Receptor gamma (RORg) (AID 2283011);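 as to AC50: potency for induction of reporter transcripts above DMSO so activators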
# Method in brief: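 First, HepG2 liver cells were transfected with GAL4-UAS-driven reporter constructs and the RORg-Gal4 fusion. Next, they were treated with chemical for 24 h. Finally, reporter mRNA was quantified by RT-PCR and capillary electrophoresis, with upward activity fitted against DMSO.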
# [9] = molecular target: human Thyroid Receptor alpha (THRa1), THRA (gene 7067) (UniProt P10827); test: ATG_THRa1_TRANS: Attagene TRANS-FACTORIAL HepG2 Assay for human Thyroid Receptor alpha (THRa1) (AID 2283014)
# Method in brief: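 Reporter transcript induction, read by capillary electrophoresis of 6-FAM-labelled RT-PCR products, reflects activity of a transfected THRa1-Gal4 fusion in HepG2 liver cells. Cells were dosed for 24 h; activity was fitted in the positive direction against DMSO.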
# [10] = TOX21_p53_BLA_p3_viability: Viability Assessment in the Tox21 HCT-116 p53 Agonism Beta-lactamase Assay, Phase 3 (AID 2283593);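 also: cells exposed to compound for 16 h before reading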
# Method in brief: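 Cellular ATP was quantified by CellTiter-Glo luminescence, read after 30 min at room temperature. Beforehand, HCT116 cells (4000/well) received compound 5 h post-seeding, 217-fold diluted from DMSO, then incubated 16 h at 37C.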
# [11] = molecular target: Oxysterols receptor LXR-alpha (Homo sapiens) (UniProt Q13133); test: ATG_LXRa_TRANS: Attagene TRANS-FACTORIAL HepG2 Assay for human Liver X Receptor alpha (LXRa) (AID 2282980); conditions: HepG2 Attagene TRANS reporter, LXRa transactivation
# Method in brief: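 Transfect HepG2 with GAL4-UAS multiplex reporter constructs (TRANS format, chimeric receptor-GAL4); treat 24 h; extract RNA, reverse-transcribe, PCR-amplify, FAM-label, HpaI-digest; resolve fragments by capillary electrophoresis. Upward response vs DMSO.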
# [12] = molecular target: Hepatocyte nuclear factor 4-alpha (Homo sapiens) (UniProt P41235); test: ATG_HNF4a_TRANS: Attagene TRANS-FACTORIAL HepG2 Assay for human Hepatocyte Nuclear Factor 4 alpha (HNF4a) (AID 2282982); conditions: HepG2 HNF4a transactivation reporter, mRNA readout
# Method in brief: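 Activity of an exogenous HNF4a–Gal4 fusion scored as induced GAL4-UAS reporter transcripts after 24 h chemical exposure of transfected human HepG2 cells. Read-out via RT-PCR with 6-FAM labelling and capillary electrophoresis; rise over DMSO baseline.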
# [13] = molecular target: human Retinoid X Receptor beta (RXRb), RXRB (gene 6257) (UniProt P28702); test: ATG_RXRb_TRANS: Attagene TRANS-FACTORIAL HepG2 Assay for human Retinoid X Receptor beta (RXRb) (AID 2283013)
# Method in brief: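 Chimeric receptor-Gal4 activity was assessed in transiently transfected human HepG2 cells after 24 h exposure. Transcripts from GAL4-UAS reporters were quantified by fluorescent RT-PCR and capillary electrophoresis, with DMSO as negative control and baseline.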
# [14] = TOX21_p53_BLA_p2_viability: Viability Assessment in the Tox21 HCT-116 p53 Agonism Beta-lactamase Assay, Phase 2 (AID 2283591);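 also: compound exposure lasted 16 h at 37 °C; actives lower the ATP signal meaning cytotoxicity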
# Method in brief: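 Cytotoxicity readout: CellTiter-Glo ATP luminescence, 30 min at room temperature, after the beta-lactamase read. Cells were HCT116 exposed 16 h at 37C to compounds pin-transferred at 217-fold dilution from DMSO stocks.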
# [15] = TOX21_p53_BLA_p4_viability: Viability Assessment in the Tox21 HCT-116 p53 Agonism Beta-lactamase Assay, Phase 4 (AID 2283597);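 also: hits lower the luminescence signal meaning cytotoxicity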
# Method in brief: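 Readout: ATP luminescence (CellTiter-Glo), measured 30 min after reagent addition at RT. The reagent followed a 2 h CCF4-AM incubation, and the cells had been exposed to compound for 16 h at 37C.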
# [16] = molecular target: Cellular tumor antigen p53 (Homo sapiens) (UniProt P04637); test: TOX21_p53_BLA_p5_ratio: Tox21 HCT-116 p53 Agonism Beta-lactamase Assay, Ratio, Phase 5 (AID 2283599)
# Method in brief: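 Beta-lactamase reporter ratio (blue 460 nm over green 530 nm, 405 nm excitation) after 2 h CCF4-AM loading, in HCT-116 cells exposed 16 h at 37 C to compounds pinned at 217-fold dilution. Increases relative to DMSO baseline scored.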
# [17] = molecular target: Retinoic acid receptor RXR-alpha (Homo sapiens) (UniProt P19793); test: ATG_RXRa_TRANS: Attagene TRANS-FACTORIAL HepG2 Assay for human Retinoid X Receptor alpha (RXRa) (AID 2283012)
# Method in brief: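 Measures exogenous chimeric NR-GAL4 activity in transfected HepG2 liver cells after 24 h of dosing. Induced reporter mRNA was detected by RT-PCR with capillary electrophoresis, and gain of signal was analysed against DMSO.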
# [18] = molecular target: human Vitamin D Receptor (VDR), VDR (gene 7421) (UniProt P11473); test: ATG_VDR_TRANS: Attagene TRANS-FACTORIAL HepG2 Assay for human Vitamin D Receptor (VDR) (AID 2283022)
# Method in brief: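 Steps: transfect HepG2 with GAL4-UAS-driven reporter constructs; dose compounds 24 h; isolate RNA, reverse-transcribe, PCR-amplify with 6-FAM-labelled primer extension and HpaI digestion; quantify fragments by capillary electrophoresis relative to DMSO.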
# [19] = molecular target: Retinoic acid receptor RXR-alpha (Homo sapiens) (UniProt P19793); test: OT_NURR1_NURR1RXRa_0480: Odyssey Thera (OT) 8-hour HEK293T Protein Complementation Assay for Nurr1/retinoid X receptor (RXR) (AID 2283385)
# Method in brief: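 Interaction of bait and prey reconstitutes a functional reporter, whose fluorescence was measured in HEK293T cells dosed with compound for 8 hours. Signal gain relative to DMSO defined the single endpoint.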
# [20] = molecular target: Retinoic acid receptor RXR-alpha (Homo sapiens) (UniProt P19793); test: OT_NURR1_NURR1RXRa_1440: Odyssey Thera (OT) 24-hour HEK293T Protein Complementation Assay for Nurr1/retinoid X receptor (RXR) (AID 2283386)
# Method in brief: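 Steps: fragment-tagged Nurr1 and RXRα expressed in HEK293T; compounds added; after 24 h, complemented reporter quantified by fluorescence intensity; signal increase over DMSO fitted as the single endpoint.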
smiles,measurement,setting,value
COC(=O)c1cc(Oc2ccc(Cl)cc2Cl)ccc1[N+](=O)[O-],AC50,[1],inconclusive: 100 µM
same,AC50,[2],active: 32.3 µM
same,outcome,[3],inactive
same,AC50,[4],inconclusive: 27.9 µM
same,AC50,[5],inconclusive: 25.8 µM
same,outcome,[6],inactive
same,AC50,[7],inconclusive: 55.6 µM
same,outcome,[8],inactive
same,outcome,[9],inactive
same,outcome,[10],inactive
OCC(c1ccc(Cl)cc1)c1ccc(Cl)cc1,AC50,[1],inconclusive: 33.4 µM
same,AC50,[11],inconclusive: 33.4 µM
same,outcome,[12],inactive
same,AC50,[2],active: 46.3 µM
same,AC50,[4],inconclusive: 19.1 µM
same,AC50,[5],inconclusive: 17.2 µM
same,AC50,[6],inconclusive: 40.8 µM
same,AC50,[8],inconclusive: 33.4 µM
same,outcome,[13],inactive
same,AC50,[14],active: 69.5 µM
same,AC50,[15],active: 71.1 µM
same,AC50,[16],active: 86.8 µM
CCCCS(=O)(=O)Cl,AC50,[11],inconclusive: 100 µM
same,outcome,[12],inactive
same,AC50,[3],inconclusive: 100 µM
same,AC50,[4],inconclusive: 182 µM
same,AC50,[5],inconclusive: 182 µM
same,AC50,[6],inconclusive: 100 µM
same,outcome,[7],inactive
same,AC50,[17],inconclusive: 100 µM
same,AC50,[13],inconclusive: 100 µM
same,AC50,[9],inconclusive: 148 µM
same,outcome,[18],inactive
same,AC50,[14],inconclusive: 46.1 µM
same,AC50,[10],inconclusive: 11.2 µM
same,AC50,[16],inconclusive: 46.1 µM
CCCCCCCCc1ccc(O)cc1,AC50,[1],inconclusive: 33.5 µM
same,AC50,[11],inconclusive: 33.5 µM and inconclusive: 100 µM
same,AC50,[12],inconclusive: 100 µM
same,outcome,[2],inactive
same,AC50,[3],active: 24.8 µM
same,AC50,[4],inconclusive: 0.159 µM
same,outcome,[4],inactive
same,AC50,[5],inconclusive: 59.4 µM
same,outcome,[5],inactive
same,AC50,[6],active: 33.5 µM
same,outcome,[6],inactive
same,AC50,[7],inconclusive: 55.9 µM and inconclusive: 192 nM
same,AC50,[8],inconclusive: 33.5 µM
same,AC50,[17],inconclusive: 100 µM
same,AC50,[13],active: 24.5 µM and inconclusive: 100 µM
same,AC50,[9],active: 43.7 µM
same,AC50,[18],inconclusive: 100 µM
same,AC50,[19],inconclusive: 92.6 µM
same,outcome,[19],inactive
same,AC50,[20],active: 57.4 µM
same,outcome,[14],inactive
same,outcome,[15],inactive

# Exported with tabs: entries from further up.
smiles	measurement	setting	value
CCCCS(=O)(=O)Cl	outcome	[12]	inactive
same	AC50	[4]	inconclusive: 182 µM
CCCCCCCCc1ccc(O)cc1	AC50	[11]	inconclusive: 33.5 µM and inconclusive: 100 µM
